Construct, isoform or probe ends are uncertain for at least one entry. A weaker result is weaker than the reference pair of the same experiment.
Tested on: Endo-SR (murine, partially purified Fraction IV, DNase II-like) (Mus musculus)
Experiment: enzyme reaction in vitro
Details: purified native protein, label: 32P

Sequence	activity on this sequence (strong double cleavage at TGGGG, weaker single cleavages at TGAGC, antisense cut opposite TGGGG, 37 C)	activity on this sequence (strong double cleavage abolished, single nicks at TGAGC only, no antisense cleavage, variant of SµO-5R1)
CTAGAGCTGGGGTGAGCTGAGCTGAGCT / CTAGAGCTCAGCTCAGCTCACCCCAGCT [SµO-5R1]	active	
CTAGAGCTGAGCTGAGCTGAGCTGAGCT / CTAGAGCTCAGCTCAGCTCAGCTCAGCT [SµO-5R2]		less active
